Laboratory results as given in paper PMC3143158.

Sequences of proteins named here, by UniProt entry; tags and fusion partners are left off. A change or cut given only in a name is not applied to a line headed by its entry.
UniProt O15169: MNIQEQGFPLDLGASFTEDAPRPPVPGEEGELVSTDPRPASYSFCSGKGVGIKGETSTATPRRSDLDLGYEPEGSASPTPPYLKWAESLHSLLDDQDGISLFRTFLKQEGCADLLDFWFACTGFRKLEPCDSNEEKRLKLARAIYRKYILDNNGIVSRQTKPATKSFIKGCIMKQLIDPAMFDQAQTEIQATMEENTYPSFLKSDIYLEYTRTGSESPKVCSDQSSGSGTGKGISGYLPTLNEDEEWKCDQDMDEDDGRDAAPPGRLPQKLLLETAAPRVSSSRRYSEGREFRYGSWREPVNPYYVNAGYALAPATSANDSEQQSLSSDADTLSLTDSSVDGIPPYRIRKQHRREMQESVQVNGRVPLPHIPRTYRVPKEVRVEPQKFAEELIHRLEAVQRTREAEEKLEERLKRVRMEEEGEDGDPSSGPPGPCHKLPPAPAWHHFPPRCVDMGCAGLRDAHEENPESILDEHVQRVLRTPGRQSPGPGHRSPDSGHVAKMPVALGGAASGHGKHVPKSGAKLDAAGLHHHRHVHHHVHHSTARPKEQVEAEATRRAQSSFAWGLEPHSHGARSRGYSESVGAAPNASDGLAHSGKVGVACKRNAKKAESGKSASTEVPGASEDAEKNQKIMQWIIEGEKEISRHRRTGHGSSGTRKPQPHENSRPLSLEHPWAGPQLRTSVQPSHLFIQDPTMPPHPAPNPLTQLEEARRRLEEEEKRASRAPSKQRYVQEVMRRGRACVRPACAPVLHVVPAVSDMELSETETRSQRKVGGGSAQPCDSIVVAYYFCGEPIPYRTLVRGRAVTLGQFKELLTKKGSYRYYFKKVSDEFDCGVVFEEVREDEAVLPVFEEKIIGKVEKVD
UniProt P09874: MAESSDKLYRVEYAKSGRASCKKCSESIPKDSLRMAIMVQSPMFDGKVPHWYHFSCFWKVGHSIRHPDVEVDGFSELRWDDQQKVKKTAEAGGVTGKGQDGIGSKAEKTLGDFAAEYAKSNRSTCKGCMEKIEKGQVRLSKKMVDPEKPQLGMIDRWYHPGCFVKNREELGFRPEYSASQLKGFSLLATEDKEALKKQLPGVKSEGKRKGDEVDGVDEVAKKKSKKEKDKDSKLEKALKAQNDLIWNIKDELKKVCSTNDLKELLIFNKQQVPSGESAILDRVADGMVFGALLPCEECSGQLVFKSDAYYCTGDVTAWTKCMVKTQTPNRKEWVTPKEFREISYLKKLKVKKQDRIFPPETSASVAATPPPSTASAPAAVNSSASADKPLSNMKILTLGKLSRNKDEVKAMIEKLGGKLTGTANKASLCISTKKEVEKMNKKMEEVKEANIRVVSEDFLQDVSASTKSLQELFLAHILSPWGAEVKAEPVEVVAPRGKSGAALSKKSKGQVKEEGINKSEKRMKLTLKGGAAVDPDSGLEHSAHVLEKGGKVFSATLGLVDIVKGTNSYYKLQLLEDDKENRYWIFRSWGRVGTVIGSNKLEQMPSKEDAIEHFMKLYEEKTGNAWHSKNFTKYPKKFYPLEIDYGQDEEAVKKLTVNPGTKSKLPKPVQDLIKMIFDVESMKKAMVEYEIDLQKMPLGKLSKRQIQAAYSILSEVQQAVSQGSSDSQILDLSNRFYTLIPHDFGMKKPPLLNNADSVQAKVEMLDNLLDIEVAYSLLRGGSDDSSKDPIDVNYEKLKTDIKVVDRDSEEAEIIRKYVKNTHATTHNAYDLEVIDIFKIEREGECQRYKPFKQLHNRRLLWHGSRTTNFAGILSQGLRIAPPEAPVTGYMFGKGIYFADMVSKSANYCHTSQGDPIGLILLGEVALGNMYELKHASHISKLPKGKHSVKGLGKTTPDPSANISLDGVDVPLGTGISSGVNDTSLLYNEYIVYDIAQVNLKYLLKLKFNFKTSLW

Target: flag-tagged AXIN1 (UniProt O15169)
Assay: co-IP; immunoprecipitation of flag-AXIN1 from HEK293 cells co-transfected with HA-tagged RNF146, TNKS1 or PARP1 (wildtype or deletion alleles); anti-HA blot, short and long exposure

Row | binding | Substance
1 | no binding | HA-tagged PARP1ΔPARP (from UniProt P09874) (domain or fragment)
2 | binds | HA-tagged RNF146ΔRING (from UniProt Q9NTX7-2) (domain or fragment)

No constants are given. Whether binding was seen depends on the method and setting. Binding seen in cells or lysates may run through a third protein. Binding can be weak; no strength is given.
